# Results of single-concentration screens

By UniProt entry, the sequences of proteins in these tests, tags left out. Residues count along the entry.
UniProt P9WFT3, whole entry: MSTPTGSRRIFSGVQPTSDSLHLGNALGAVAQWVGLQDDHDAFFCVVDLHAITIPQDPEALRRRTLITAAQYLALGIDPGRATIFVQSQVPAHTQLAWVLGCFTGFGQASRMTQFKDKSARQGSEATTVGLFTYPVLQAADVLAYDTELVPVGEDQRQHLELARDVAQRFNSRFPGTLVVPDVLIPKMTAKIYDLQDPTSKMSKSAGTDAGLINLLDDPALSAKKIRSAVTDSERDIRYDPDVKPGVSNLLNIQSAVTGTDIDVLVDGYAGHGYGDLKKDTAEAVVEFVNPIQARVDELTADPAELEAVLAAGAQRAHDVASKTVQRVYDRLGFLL
UniProt Q4DA54, 1-478: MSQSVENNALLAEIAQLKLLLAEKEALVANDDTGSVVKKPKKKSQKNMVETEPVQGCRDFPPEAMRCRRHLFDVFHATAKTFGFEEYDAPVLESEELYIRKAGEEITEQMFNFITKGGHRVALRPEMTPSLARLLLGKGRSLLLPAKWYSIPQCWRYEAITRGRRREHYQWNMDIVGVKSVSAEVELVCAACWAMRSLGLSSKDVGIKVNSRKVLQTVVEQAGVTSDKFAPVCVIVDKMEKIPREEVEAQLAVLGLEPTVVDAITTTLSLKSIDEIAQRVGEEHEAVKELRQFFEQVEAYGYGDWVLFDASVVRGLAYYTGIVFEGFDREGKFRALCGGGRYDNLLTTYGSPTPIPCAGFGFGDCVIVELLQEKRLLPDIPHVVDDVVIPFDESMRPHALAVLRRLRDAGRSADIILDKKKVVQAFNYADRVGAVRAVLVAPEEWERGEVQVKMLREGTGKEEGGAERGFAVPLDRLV
UniProt Q8IDJ8, 1-583: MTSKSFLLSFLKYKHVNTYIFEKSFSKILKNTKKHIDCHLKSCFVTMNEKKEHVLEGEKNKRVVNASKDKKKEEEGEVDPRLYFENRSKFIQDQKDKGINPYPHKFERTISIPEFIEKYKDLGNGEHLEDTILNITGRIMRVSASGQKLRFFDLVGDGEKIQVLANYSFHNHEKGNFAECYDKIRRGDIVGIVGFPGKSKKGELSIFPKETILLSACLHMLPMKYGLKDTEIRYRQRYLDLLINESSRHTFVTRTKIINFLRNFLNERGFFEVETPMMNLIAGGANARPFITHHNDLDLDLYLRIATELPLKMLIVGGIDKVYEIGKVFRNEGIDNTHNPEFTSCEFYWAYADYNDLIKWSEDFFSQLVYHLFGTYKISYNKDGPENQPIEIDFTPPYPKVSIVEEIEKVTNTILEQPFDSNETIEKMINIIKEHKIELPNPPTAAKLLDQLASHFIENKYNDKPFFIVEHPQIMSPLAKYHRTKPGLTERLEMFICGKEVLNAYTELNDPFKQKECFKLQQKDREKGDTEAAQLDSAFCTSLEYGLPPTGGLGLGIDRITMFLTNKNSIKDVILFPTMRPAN
UniProt P9WNZ1, whole entry: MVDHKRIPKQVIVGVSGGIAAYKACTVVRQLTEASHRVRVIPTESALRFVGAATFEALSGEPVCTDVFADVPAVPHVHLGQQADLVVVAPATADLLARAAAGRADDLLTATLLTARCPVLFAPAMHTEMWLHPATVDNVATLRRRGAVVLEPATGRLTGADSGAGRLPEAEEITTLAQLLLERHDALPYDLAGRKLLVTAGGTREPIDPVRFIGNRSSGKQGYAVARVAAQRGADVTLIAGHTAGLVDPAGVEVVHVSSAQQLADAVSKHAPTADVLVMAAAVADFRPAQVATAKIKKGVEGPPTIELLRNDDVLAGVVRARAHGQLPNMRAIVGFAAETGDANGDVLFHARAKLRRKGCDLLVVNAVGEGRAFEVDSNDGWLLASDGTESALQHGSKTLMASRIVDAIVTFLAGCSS
UniProt I6X8D2, whole entry: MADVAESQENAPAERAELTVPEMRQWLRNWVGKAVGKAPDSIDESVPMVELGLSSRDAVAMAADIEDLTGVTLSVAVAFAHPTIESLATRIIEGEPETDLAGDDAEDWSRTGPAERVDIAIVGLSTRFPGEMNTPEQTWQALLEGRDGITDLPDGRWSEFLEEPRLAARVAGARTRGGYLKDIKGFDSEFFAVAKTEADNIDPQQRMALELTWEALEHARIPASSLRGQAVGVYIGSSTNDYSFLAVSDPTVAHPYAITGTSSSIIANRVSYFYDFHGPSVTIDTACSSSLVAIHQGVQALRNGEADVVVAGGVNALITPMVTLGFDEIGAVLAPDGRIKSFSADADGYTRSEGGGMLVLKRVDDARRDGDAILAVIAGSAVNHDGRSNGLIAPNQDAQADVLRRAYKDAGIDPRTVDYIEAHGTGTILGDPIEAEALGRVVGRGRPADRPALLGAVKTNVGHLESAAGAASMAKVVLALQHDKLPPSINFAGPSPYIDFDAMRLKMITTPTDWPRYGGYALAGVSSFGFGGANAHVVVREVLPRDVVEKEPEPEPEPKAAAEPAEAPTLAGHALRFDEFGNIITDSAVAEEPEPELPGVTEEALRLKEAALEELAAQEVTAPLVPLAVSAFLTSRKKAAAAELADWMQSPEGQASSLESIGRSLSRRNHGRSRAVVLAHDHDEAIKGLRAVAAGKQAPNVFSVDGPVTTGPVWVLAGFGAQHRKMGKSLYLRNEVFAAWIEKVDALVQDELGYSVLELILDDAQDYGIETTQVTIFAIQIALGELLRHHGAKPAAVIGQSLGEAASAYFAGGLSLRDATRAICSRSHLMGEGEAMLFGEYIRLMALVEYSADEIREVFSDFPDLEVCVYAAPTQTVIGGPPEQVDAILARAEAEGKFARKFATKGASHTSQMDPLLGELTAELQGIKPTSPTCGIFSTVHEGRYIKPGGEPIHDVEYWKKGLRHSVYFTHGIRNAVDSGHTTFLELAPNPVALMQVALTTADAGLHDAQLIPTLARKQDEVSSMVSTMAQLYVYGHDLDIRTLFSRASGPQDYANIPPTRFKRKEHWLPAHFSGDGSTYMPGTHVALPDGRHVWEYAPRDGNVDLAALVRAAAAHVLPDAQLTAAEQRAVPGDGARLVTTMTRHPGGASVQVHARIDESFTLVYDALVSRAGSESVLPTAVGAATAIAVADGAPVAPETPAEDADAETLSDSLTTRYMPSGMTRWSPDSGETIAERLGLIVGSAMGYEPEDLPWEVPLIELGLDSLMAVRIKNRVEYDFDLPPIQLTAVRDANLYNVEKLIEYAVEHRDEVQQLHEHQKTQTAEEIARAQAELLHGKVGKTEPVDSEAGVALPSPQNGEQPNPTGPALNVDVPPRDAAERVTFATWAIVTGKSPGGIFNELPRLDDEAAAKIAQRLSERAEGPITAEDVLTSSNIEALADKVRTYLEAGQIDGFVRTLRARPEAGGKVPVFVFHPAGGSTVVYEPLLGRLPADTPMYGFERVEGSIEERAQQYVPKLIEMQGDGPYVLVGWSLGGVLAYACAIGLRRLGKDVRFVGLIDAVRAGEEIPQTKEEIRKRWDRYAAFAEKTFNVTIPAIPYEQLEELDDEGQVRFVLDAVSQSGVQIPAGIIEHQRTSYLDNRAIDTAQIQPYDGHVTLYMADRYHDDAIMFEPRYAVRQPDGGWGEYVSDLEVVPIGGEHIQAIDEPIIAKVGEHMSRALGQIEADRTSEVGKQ

Data taken from ChEMBL document CHEMBL3988442, “University of Dundee, Small-Polar-MMV Screening Library” (2021).

A: 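Enzyme assay of tryptophanyl-tRNA synthetase; the read-out is not stated. Target: Tryptophan-tRNA ligase, Mycobacterium tuberculosis (UniProt P9WFT3). Tested at 10 µM. Direction is not recorded; retested compounds ran higher, which suggests that high means inhibition. Size under these conditions: about 65,000 compounds, about 64 of them at 50% or above in at least one test.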
B: 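Enzyme assay of histidyl-tRNA synthetase; the read-out is not stated. Target: Histidine-tRNA ligase, Trypanosoma cruzi CL Brener (UniProt Q4DA54). Concentration: 30 µM. Higher reads as stronger inhibition (inferred: compounds with an IC50 in retests scored well above the rest). About 69,000 compounds were tested under these conditions; 0.045% (about 31) showed 50% or more at least once.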
C: 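Enzyme assay of the cytosolic lysyl-tRNA synthetase in 384-well plates, read by luminescence. Target: Lysine-tRNA ligase, Plasmodium falciparum 3D7 (UniProt Q8IDJ8). Tested at 30 µM. Direction is inferred from only a few compounds that gave an IC50; most scored high, so higher reads as stronger inhibition. About 69,000 compounds were tested under these conditions; 0.071% (about 49) showed 50% or more at least once.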
D: 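Coenzyme A biosynthesis protein CoaBC, Mycobacterium tuberculosis (UniProt P9WNZ1). Enzyme assay of CoaBC with a phosphate dye (Biomol Green) read at 650 nm. Concentration: 30 µM. Direction is inferred from only a few compounds that gave an IC50; most scored high, so higher reads as stronger inhibition. Most strong results did not repeat in a second test. Of about 67,000 compounds tested this way, about 40 (0.06%) reached 50% or more in at least one test.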
E: 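Polyketide synthase Pks13, Mycobacterium tuberculosis (UniProt I6X8D2). Enzyme assay of the thioesterase domain of polyketide synthase 13; the read-out is not stated. Tested at 30 µM. The record gives no direction; the compounds picked for IC50 retests had high values, so higher reads as stronger inhibition. About 67,000 compounds were tested under these conditions; 0.46% (about 300) showed 50% or more at least once.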
F: 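Cell assay of Leishmania donovani living inside macrophages; the read-out is not stated. Concentration: 30 µM. The record gives no direction; compounds that gave an IC50 in retests scored well above the rest, so higher reads as stronger inhibition. About 69,000 compounds were tested under these conditions; 1.5% (about 1,000) showed 50% or more at least once.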

Values are the deposited “Percent Effect”, in %.
The record does not define 0% and 100%; most values in the screen are far below 50% and negative numbers occur (in some assays of this library far below -100).
This is an unselected part of the compounds tested.

For COc1ccc(CC(=O)N2CCCC(c3nncn3C)C2)cc1 (stereo unspecified) the result was A: 3.499%; B: -10.92%; C: 18.43%; D: 7.559%; E: -21.67%; F: 5.464%. COc1cc(NCC(c2ccccn2)N(C)C)ncn1 (stereo unspecified) gave A: -0.4472%; B: 5.747%; C: 2.92%; D: -8.4%; E: -21.7%; F: 15.79%. For Cc1nc(CN2C(=O)CCC23CCN(Cc2ccoc2)CC3)cs1.O=C(O)C(F)(F)F.O=C(O)C(F)(F)F the result was F: 9.105%. For CC(C)C(C)NC(=O)Nc1cccn(C)c1=O (stereo unspecified) the result was A: 4.447%; B: 6.897%; C: -3.059%; D: -5.159%; E: -9.165%; F: -9.065%. Cn1cc(CN2CC[C@H]3O[C@@H](COCc4cccnc4)CC[C@H]32)cn1 read A: -5.231%; B: 7.143%; C: 2.49%; D: 3.09%; E: -7.361%.

Result for Cc1nocc1C(=O)N1CCCC2(CCN(c3cnn(C)c3)C2=O)C1 (stereo unspecified) was A: -5.706%; B: 7.018%; C: 9.621%; D: -2.343%; F: 16.14%. With CCC(=O)N1CCC(c2nnc(Cn3cncn3)n2C2CC2)CC1 the screen gave A: 8.341%; B: -2.439%; C: 1.231%; D: 12.66%; E: -11.66%; F: 4.512%. With c1cc(CNCC2OCCc3cn(CC4CCOCC4)nc32)ccn1 (stereo unspecified) the screen gave A: 4.969%; B: 0.5525%; C: 4.855%; D: 3.599%; E: -34%. For Cc1nccc(N2CCCC(c3nnc(Cn4ccnc4C)n3C)C2)n1 (stereo unspecified) the result was A: -1.112%; B: -1.212%; C: -3.456%; D: -1.533%; E: -37.37%; F: 14.2%. With O=C(COc1ccccc1)N1CCCC1c1ccc[nH]1 (stereo unspecified) the screen gave A: -2.227%; B: 11.06%; C: -1.841%; D: 1.399%; E: 5.225%; F: 1.103%.

With COc1c(F)cc(CN2CCCC3(CC2)CNC(=O)O3)cc1Cl (stereo unspecified) the screen gave A: -0.6399%; B: 7.389%; C: 1.202%; D: -22.26%; E: 5.079%; F: 2.918%. Result for COc1cc(OC)cc(C(=O)NCC(c2cccn2C)N2CCCC2)c1 (stereo unspecified) was A: 16.12%; B: 7%; C: 1.483%; D: -2.767%; E: -33.92%; F: 8.167%. For Cc1cccc(NC(=O)N2CCn3cnc(COCC4CC4)c3C2)c1 the result was A: -3.562%; B: 6%; C: -0.8989%; D: -3.03%; E: -11.76%; F: 7.863%. Cc1cc(C)c(CNC(=O)NCCNc2ncccn2)c(=O)[nH]1 read A: 5.828%; B: 6.627%; C: 0.7666%; D: -0.3659%; E: -8.213%; F: 0.4208%. CCCC(Nc1nc(COCC)nc2c1CCNCC2)c1nccn1C (stereo unspecified) read A: 0.8189%; B: 3.191%; C: 3.122%; D: -34.14%; E: -14.87%; F: 10.75%.

For CCn1ccnc1CN(C)c1cc(OC)ncn1 the result was A: 1.457%; B: 6.627%; C: 1.324%; D: 1.098%; F: 25.27%. CS(=O)(=O)CCC(=O)NC1CC(c2cccc(Cl)c2)C1 (stereo unspecified) read A: 3.112%; B: 3.867%; C: -2.441%; D: -1.831%; E: -6.509%; F: 9.936%. Result for CCNC(=O)CN(Cc1ccoc1)C1CCCCC1 was A: 3.561%; B: -2.02%; C: 8.663%; D: 5.835%; E: -28.4%; F: 11.9%. With CS(=O)(=O)N1C[C@@H]2CC[C@H](C1)N(Cc1ccsc1)C2 the screen gave A: 11.81%; B: -1.064%; C: -7.442%; D: -4.555%; E: 0.2695%. With COc1ccc(Oc2ncccc2F)cc1CN1CCCC1 the screen gave A: -3.329%; B: 0.9662%; C: 0.2887%; D: -0.1242%; E: 14.33%; F: 11.96%.

The first 2 entries again:

{"compound": "COc1ccc(CC(=O)N2CCCC(c3nncn3C)C2)cc1", "stereo": "stereo unspecified", "A": 3.499, "B": -10.92, "C": 18.43, "D": 7.559, "E": -21.67, "F": 5.464}
{"compound": "COc1cc(NCC(c2ccccn2)N(C)C)ncn1", "stereo": "stereo unspecified", "A": -0.4472, "B": 5.747, "C": 2.92, "D": -8.4, "E": -21.7, "F": 15.79}